Data taken from the supplement of paper PMC11732987, “Enantioselective OTUD7B fragment discovery through chemoproteomics screening and high-throughput optimisation” (Communications Chemistry, 2025).
Some of the results follow. The data scatter; read single values as rough.

Chains of the proteins cited; added tags and fusions are not shown. Lines headed by an entry give the natural chain unless they say otherwise; changes in a name come on top. Residues count along the entry.
UniProt O00522: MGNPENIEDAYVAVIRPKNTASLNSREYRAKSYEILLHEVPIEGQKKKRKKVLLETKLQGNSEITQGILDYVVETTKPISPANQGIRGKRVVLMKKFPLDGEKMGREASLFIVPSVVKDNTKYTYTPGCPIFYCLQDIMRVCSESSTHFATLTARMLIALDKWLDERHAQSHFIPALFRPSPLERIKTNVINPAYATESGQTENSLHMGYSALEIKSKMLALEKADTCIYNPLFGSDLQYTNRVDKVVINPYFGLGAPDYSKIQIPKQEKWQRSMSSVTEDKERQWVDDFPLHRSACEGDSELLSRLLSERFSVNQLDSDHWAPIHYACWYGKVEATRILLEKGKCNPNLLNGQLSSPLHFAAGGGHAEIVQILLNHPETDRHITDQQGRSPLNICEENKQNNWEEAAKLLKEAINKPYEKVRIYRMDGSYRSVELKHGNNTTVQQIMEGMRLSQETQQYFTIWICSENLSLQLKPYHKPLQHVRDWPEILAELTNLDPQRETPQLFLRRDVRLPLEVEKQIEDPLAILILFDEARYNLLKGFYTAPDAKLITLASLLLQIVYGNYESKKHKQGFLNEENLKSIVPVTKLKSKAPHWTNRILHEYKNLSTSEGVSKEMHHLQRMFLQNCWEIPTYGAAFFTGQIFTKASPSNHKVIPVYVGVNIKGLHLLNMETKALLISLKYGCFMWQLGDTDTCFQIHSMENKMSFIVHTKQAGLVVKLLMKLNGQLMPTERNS
UniProt Q9NVR0: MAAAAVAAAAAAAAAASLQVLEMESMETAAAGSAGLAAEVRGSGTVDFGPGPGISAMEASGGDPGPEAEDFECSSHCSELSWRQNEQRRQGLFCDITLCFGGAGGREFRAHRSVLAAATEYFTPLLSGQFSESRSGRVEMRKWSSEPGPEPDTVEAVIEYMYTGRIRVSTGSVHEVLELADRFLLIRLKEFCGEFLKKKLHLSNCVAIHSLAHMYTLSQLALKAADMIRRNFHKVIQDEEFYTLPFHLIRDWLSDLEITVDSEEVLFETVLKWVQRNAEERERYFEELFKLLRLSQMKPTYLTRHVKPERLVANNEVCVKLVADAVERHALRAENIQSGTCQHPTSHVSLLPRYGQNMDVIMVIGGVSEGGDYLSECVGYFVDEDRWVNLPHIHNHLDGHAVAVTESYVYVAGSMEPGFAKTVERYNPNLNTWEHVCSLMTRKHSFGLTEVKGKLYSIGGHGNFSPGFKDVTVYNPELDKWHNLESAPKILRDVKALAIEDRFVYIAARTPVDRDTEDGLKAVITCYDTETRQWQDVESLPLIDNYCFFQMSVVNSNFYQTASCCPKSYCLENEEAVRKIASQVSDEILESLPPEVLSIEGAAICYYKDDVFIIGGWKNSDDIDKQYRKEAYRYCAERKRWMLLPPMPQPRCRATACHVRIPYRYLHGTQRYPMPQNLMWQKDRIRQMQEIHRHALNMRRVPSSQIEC
UniProt Q8NEZ4, 3744-3769: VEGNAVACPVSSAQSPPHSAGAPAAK
UniProt Q15334: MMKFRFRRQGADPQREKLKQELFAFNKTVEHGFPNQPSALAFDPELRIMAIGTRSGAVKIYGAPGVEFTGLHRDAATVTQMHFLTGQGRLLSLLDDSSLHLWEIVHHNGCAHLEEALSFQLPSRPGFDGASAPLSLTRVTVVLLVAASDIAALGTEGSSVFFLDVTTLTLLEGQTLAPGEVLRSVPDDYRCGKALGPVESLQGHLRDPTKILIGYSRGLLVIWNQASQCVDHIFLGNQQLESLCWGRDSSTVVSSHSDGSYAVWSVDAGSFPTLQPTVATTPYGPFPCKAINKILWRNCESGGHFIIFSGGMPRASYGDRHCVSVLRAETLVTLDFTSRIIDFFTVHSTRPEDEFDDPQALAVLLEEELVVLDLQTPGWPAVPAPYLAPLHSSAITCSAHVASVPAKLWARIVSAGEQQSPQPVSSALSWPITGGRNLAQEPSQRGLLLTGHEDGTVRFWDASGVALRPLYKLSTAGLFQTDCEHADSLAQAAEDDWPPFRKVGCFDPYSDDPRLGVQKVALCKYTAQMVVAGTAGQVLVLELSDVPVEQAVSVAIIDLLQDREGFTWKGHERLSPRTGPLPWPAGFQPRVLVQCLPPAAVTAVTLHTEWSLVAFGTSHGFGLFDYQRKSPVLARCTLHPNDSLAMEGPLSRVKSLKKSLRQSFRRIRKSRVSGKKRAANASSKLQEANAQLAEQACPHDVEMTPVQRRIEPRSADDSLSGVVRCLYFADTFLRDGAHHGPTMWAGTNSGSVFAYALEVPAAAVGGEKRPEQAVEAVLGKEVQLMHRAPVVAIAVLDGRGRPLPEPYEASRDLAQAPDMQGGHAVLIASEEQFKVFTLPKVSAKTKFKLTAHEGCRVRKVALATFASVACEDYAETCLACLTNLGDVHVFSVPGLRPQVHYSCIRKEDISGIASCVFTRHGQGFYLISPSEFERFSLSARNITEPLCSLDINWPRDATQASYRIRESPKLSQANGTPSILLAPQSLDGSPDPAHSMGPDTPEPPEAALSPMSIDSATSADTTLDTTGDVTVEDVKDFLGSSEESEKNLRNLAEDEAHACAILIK
UniProt P01130: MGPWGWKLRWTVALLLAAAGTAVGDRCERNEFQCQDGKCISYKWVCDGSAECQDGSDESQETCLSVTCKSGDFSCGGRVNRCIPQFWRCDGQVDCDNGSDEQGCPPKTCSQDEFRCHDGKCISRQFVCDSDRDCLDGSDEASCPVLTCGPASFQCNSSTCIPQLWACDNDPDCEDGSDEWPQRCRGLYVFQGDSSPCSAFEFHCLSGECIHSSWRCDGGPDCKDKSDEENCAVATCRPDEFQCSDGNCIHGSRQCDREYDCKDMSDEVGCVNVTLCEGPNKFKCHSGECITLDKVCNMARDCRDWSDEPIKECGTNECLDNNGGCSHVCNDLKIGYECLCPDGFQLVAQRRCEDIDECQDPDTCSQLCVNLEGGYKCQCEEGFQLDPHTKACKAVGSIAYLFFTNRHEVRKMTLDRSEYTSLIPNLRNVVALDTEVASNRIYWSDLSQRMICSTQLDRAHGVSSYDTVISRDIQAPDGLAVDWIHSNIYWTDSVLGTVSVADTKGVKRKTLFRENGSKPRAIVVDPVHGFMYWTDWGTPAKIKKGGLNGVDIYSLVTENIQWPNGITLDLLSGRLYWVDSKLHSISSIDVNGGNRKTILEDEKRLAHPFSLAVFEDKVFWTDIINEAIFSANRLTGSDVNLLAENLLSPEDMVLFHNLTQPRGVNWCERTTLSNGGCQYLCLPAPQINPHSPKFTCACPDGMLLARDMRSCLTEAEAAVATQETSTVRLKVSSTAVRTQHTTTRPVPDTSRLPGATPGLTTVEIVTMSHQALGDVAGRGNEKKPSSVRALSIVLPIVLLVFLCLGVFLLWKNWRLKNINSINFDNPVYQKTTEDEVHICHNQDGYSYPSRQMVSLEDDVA
UniProt P52294, whole entry, looked up: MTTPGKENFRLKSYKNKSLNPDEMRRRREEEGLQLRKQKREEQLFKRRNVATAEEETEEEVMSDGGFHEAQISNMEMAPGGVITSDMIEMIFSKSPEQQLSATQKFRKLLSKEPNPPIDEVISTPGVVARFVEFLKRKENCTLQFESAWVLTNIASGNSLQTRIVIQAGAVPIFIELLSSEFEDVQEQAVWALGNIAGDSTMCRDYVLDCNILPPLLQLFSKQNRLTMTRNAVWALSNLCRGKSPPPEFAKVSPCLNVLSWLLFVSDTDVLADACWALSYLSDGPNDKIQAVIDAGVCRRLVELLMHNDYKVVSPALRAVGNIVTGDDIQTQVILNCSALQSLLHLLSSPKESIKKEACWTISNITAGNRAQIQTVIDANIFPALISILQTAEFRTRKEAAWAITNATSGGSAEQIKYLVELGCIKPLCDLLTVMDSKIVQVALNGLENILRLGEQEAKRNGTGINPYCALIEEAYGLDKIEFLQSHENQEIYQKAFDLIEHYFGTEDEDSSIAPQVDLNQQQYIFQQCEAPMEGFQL
UniProt Q53H82: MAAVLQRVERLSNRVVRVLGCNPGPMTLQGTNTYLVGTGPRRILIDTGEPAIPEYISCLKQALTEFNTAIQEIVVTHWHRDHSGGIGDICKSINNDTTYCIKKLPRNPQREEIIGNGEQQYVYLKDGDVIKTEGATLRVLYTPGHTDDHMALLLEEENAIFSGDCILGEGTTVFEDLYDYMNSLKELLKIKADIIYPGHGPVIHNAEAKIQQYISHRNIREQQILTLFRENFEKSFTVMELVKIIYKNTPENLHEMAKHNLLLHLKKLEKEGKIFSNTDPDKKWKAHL
UniProt Q96PV6, 435-455: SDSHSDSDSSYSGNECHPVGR
UniProt Q8NG31: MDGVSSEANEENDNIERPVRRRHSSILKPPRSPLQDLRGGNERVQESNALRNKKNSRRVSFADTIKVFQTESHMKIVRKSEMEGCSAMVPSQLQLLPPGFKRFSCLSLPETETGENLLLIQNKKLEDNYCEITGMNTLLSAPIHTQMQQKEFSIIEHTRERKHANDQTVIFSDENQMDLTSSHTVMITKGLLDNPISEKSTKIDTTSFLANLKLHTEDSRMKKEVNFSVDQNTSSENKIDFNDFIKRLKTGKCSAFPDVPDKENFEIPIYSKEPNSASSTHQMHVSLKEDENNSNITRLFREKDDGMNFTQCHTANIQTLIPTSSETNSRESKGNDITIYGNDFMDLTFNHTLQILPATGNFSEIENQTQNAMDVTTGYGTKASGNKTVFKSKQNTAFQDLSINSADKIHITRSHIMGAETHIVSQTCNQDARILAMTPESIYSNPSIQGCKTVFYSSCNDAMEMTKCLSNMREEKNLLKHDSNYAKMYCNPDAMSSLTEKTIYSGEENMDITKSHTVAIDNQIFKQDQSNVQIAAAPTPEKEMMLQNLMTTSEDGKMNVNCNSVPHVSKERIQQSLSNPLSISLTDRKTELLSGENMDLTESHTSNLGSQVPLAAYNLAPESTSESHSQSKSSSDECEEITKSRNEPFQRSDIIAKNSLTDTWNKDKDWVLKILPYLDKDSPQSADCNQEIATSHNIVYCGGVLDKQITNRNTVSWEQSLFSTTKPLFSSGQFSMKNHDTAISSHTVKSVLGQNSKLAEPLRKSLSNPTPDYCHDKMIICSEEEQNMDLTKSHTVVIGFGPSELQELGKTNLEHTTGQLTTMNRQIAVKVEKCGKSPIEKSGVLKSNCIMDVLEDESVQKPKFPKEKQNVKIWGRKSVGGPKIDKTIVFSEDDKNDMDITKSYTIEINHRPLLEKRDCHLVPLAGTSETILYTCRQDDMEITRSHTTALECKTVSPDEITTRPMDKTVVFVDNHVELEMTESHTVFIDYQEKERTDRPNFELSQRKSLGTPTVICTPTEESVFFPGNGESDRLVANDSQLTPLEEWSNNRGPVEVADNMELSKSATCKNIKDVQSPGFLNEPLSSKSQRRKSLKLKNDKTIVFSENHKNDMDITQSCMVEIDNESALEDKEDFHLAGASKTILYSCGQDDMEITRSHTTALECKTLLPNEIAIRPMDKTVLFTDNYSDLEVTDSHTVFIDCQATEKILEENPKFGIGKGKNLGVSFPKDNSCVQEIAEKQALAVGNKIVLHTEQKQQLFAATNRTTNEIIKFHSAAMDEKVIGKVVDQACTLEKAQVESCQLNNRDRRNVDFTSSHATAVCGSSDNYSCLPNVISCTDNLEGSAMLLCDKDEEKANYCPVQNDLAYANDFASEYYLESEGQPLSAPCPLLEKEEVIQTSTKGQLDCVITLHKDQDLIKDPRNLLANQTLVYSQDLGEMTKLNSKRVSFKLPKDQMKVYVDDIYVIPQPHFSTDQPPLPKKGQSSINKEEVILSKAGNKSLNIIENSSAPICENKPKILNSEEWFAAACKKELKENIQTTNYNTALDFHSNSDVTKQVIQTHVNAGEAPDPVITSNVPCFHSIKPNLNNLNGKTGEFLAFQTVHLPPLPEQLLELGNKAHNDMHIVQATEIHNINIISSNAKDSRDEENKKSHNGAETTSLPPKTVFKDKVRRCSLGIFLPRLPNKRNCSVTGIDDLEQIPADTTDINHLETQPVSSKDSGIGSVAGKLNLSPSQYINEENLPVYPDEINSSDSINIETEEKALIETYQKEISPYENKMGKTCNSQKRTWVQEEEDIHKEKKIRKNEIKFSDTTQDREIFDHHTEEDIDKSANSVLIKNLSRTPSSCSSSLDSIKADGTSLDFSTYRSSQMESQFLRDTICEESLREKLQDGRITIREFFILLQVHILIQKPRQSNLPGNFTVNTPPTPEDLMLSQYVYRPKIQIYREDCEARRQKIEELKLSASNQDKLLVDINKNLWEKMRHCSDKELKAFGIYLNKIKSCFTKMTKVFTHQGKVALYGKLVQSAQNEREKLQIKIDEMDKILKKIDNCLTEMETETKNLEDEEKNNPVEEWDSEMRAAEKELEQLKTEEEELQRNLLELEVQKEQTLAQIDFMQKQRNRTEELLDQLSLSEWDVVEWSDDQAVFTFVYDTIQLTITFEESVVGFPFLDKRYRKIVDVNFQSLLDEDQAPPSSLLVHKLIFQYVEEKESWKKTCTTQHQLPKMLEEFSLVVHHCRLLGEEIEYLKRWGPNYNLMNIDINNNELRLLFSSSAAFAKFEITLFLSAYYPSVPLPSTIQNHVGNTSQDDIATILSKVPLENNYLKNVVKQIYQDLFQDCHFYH

Compound: ClCC(=O)N[C@@H]1CCCc2ccccc12
Test: log2 mean competition ratio of IA-DTB cysteine labelling (DMSO/compound) (log2 ratio); higher = stronger cysteine engagement by compound
Details: 50 µM; treatment time: 4 h; cell line lysate: HEK293T
Method: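 IA-DTB competitive cysteine chemoproteomics in HEK293T RIPA lysate. Lysates were treated with compound 29 or 30 at 50 or 200 µM for 4 h, then IA-DTB (500 µM, 1 h), trypsin-digested, NeutrAvidin-enriched and analysed by diaPASEF. Competition ratio = intensity DMSO / intensity compound (n=4 treated, n=64 DMSO); binding: mean log2 CR ≥ 1 and p ≤ 0.05 plus QC filters. Target is the cysteine site.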

Target | log2 mean competition ratio
KLHL22 C11 (UniProt Q53GT1) | -0.143
KRIT1 C297 (UniProt O00522) | -0.0811
LEMD3 C838 (UniProt Q9Y2U8) | -0.103
KLHL11 C318 (UniProt Q9NVR0) | -0.0354
KMT2C C3751 (UniProt Q8NEZ4) | 0.388
KLHL41 C147 (UniProt O60662) | 0.134
LRPPRC C848 | -0.248
LIAS C106 (UniProt O43766) | -0.417
LARP1B C775, A0A3B3ISF0 | 0.0442
LDLRAP1 C119 (UniProt Q5SW96) | -0.0346
LIMA1 C164 (UniProt Q9UHB6) | 0.0295
LLGL1 C1059 (UniProt Q15334) | -0.285
LDLR C75 (UniProt P01130) | -0.0361
KYAT3 C416 (UniProt Q6YP21) | -0.00358
KPNA1 C298 (UniProt P52294) | -0.133
KMT2A C456 (UniProt Q03164) | -0.0603
LIMS1 C300 (UniProt P48059) | -0.147
LAMP1 C338 (UniProt P11279) | 0.12
LOC100421372 C227 | 0.385

Target | log2 mean competition ratio
KLHL11 C570 (UniProt Q9NVR0) | -0.0177
LRBA C2740 | -0.376
LIFR C889 (UniProt P42702) | 0.17
LACTB2 C100 (UniProt Q53H82) | 0.0461
LPIN3 C711 (UniProt Q9BQK8) | -0.104
LENG8 C450 (UniProt Q96PV6) | 0.232
LIG3 C929 (UniProt P49916) | -0.117
LDLR C667 (UniProt P01130) | -0.21
LRBA C2675 | 0.102
KMT2A C1575 (UniProt Q03164) | 0.0662
LRPPRC C113 | -0.103
LIG3 C404 (UniProt P49916) | -0.0324
LACTB C476 (UniProt P83111) | -0.187
LONRF2 C220 (UniProt Q1L5Z9) | -0.353
LLGL1 C915 (UniProt Q15334) | -0.0981
LONP1 C682 (UniProt P36776) | -0.0266
KNL1 C1233 (UniProt Q8NG31) | 0.0107
LMOD1 C72 | 0.0334
KIFAP3 C463 (UniProt Q92845) | 0.0433

Same assay, conditions: 200 µM; treatment time: 4 h; cell line lysate: HEK293T

Target | log2 mean competition ratio
KLHL22 C11 (UniProt Q53GT1) | 0.36
KRIT1 C297 (UniProt O00522) | 0.224
LEMD3 C838 (UniProt Q9Y2U8) | -0.0567
KLHL11 C318 (UniProt Q9NVR0) | 0.137
KMT2C C3751 (UniProt Q8NEZ4) | -0.557
KLHL41 C147 (UniProt O60662) | -0.261
LRPPRC C848 | 0.24
LIAS C106 (UniProt O43766) | 0.43
LARP1B C775, A0A3B3ISF0 | -0.159
LDLRAP1 C119 (UniProt Q5SW96) | 0.0672
LIMA1 C164 (UniProt Q9UHB6) | -0.0377
LLGL1 C1059 (UniProt Q15334) | -0.0431
LDLR C75 (UniProt P01130) | 0.539
KYAT3 C416 (UniProt Q6YP21) | -0.0771
KPNA1 C298 (UniProt P52294) | -0.291
KMT2A C456 (UniProt Q03164) | 0.00465
LIMS1 C300 (UniProt P48059) | 0.109
LAMP1 C338 (UniProt P11279) | 0.321
LOC100421372 C227 | -0.278
